Data set [1] addresses T1, His-CreA (carbon catabolite repressor CreA) (Ganoderma lucidum) (UniProt A0A3S8Q1W1). The data set is described as follows: EMSA. The conditions noted are these: EMSA: 10 mM Tris-HCl pH 8.0, 1 mM DTT, 0.1 mM EDTA, 50 mM KCl, 5% glycerol, temperature not stated, recombinant protein, protein details: His (plasmid creA-28a), label: 5' biotin on both strands. For orientation: In EMSA bound probe runs differently from free probe, usually more slowly.

Protein sequences, listed by entry. Tags and fused reporters are not part of them.
UniProt A0A3S8Q1W1, entry or part of it: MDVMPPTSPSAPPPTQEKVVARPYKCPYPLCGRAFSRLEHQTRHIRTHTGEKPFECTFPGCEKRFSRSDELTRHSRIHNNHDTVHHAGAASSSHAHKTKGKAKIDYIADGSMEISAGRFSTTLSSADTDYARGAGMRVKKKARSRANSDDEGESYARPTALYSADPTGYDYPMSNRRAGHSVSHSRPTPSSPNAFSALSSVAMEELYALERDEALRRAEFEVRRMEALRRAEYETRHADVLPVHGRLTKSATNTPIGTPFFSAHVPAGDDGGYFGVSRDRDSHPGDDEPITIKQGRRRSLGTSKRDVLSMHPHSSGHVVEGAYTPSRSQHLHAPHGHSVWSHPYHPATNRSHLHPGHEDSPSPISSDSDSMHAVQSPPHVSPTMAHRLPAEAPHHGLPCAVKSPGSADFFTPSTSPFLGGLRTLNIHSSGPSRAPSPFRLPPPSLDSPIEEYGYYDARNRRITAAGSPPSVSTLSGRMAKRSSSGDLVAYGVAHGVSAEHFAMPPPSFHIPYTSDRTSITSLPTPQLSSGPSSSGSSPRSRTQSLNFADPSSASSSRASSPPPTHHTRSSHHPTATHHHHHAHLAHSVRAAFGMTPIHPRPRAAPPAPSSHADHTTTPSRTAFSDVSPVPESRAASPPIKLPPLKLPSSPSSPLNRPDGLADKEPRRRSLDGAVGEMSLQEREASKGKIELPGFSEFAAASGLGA

Data set [2] concerns the target T1, His-CreA (carbon catabolite repressor CreA) (Ganoderma lucidum). The data set is described as follows: competition with a labelled probe. The following applies: unlabeled competitor against biotin-labeled N1; EMSA: 10 mM Tris-HCl pH 8.0, 1 mM DTT, 0.1 mM EDTA, 50 mM KCl, 5% glycerol; temperature not stated; recombinant protein; protein details: His (plasmid creA-28a).

This note sets out measurements from publication PMC11024145.

Construct, isoform or probe ends are uncertain for at least one entry. For part of these data: No signal at the amounts used counts as a negative.

Turning to “TGGCTGGGGC (double strand) [cbs promoter probe]”, the binding result in data set [1] (protein titration 10, 5, 2 ug (Results give 100, 50, 20 mM), shift falls with less protein) is “binds”.

Turning to “TGGCTGGGGC (double strand) [unlabeled cold cbs promoter probe]”, in data set [2], the binding result is “binds”. For “TGGCTGTTGC (double strand) [mutated cbs promoter probe]”, the binding result in data set [1] is “no binding”.
